These results are taken from PubChem BioAssay AID493014 (National Center for Advancing Translational Sciences (NCATS), 2011).

The assay can be described thus: qHTS Assay to Find Inhibitors of Chronic Active B-Cell Receptor Signaling. The note with it: ABC-DLBCL IkBa-CBG/CBR reporter, luminescence ratio (green luciferase fused to IkBa over red control in TMD8 lymphoma cells), 4 h. The procedure, abridged:
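Doxycycline induced both beetle luciferases in TMD8 lymphoma cells; IKK-driven degradation limits the IkappaBalpha-fused green signal, while red luminescence normalises for cell number and nonspecific effects. Compounds tested up to 46 uM, 4 hrs.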

Where [1] appears, read: measured here: CBR red luminescence, cell number.
[2] abbreviates: measured here: IkBa-CBG green luminescence.

Some of the results follow. The main result of the screen is listed elsewhere. These columns were measured beside it and carry no call. Compounds called inactive in the main read-out are mostly missing here. Potencies come from curve fits of mixed quality, noted in brackets.

In general, AC50 refers to the concentration at which the activity in the assay is half-maximal. `N#Cc1c(-c2ccccc2)cc(-c2ccccc2)[nH]c1=O`: under setting [1], the AC50 was 5.62 µM [falling, single point].

For the molecule `COc1cc(/C=N/NC(=O)c2nonc2C)ccc1O`, the AC50 under setting [1] was 12.6 µM [falling, partial curve, poor fit]. The same measure, in the same setting: with `CCOc1ccc2[nH]c3c(NCCOC)ncnc3c2c1` the figure was 12.6 µM [rising, single point]; with `Cc1nc2cc(NC(=O)N3c4ccccc4CC3C)ccc2n1C` (configuration not stated), 16.4 µM [falling, single point].

Take `Cc1cc(=O)oc2c3c(cc(OCC(=O)Nc4ccc(CCO)cc4)c12)OC(C)(C)CC3`: the AC50 under setting [1] was 3.16 µM [rising, partial curve].

As to `O=C(N/N=C/c1ccc(Br)o1)c1ccc2c(c1)OCCO2`, the concentration at half-maximal activity (AC50) under setting [1] was 13 µM [falling, partial curve]. `O=S(=O)(c1ccc2ccccc2c1)N1CCCCCC1`: the half-maximal activity concentration (AC50) is 10 µM [falling, partial curve, poor fit] under setting [1] and 20 µM [rising, partial curve, poor fit] under setting [2].

As to `CCCN(CCC)Cc1cc2ccccc2c2c1COC2`, the AC50 under setting [1] is 25.9 µM [rising, partial curve, poor fit]. On the same count and under the same terms, with `C[C@@H]1C[C@H](Nc2ccccc2)c2ccccc2N1C(=O)c1cccnc1` the figure was 35.5 µM [falling, single point]; with `O=C1C=C(c2ccc(O)cc2)C[C@@H](c2ccc3c(c2)OCO3)C1`, 29.1 µM [falling, single point]. Take `COc1cc(C2C(N3C(=O)c4ccccc4C3=O)C(=O)N2c2cccc(C)c2)cc(OC)c1OC` (configuration not stated): the concentration at half-maximal activity (AC50) under setting [2] was 10.3 µM [falling, partial curve]. On to `CC1=NN(C(N)=S)C(=O)C1N=Nc1ccccc1` (configuration not stated), for which the AC50 by setting is: under setting [1], 2.82 µM [falling, full curve]; under setting [2], 1.12 µM [falling, full curve]. Take `COc1ccc(-c2nnn(CC#N)n2)cc1OC`: under setting [1], the half-maximal activity concentration (AC50) was 8.2 µM [rising, partial curve, poor fit]. For `COc1ccccc1C(=O)NNC1=C(C(=O)C(F)(F)F)CCC1`, the AC50 under setting [1] was 0.562 µM [falling, partial curve, poor fit]. `O=C(O)C1CC(c2ccccc2)=Nc2ccccc2S1` (configuration not stated): under setting [1], the AC50 is 14.1 µM [falling, single point]. Same read-out and setting: with `CC1CN(C(=O)C(c2ccccc2)c2ccccc2)CC(C)O1` (configuration not stated) the figure was 6.51 µM [falling, single point]; with `O/C(=C\c1ccc2ccccc2n1)c1ccc(O)cc1O`, 11.2 µM [falling, single point]. The same measure, in the same setting: the same measure for `CCCOc1ccc(C(=O)NNC(=S)NC(=O)c2ccccc2[N+](=O)[O-])cc1`: 11.2 µM [rising, single point]. Same read-out and setting: with `CCN(CC)c1ccc(C2=NNC(=O)CC2C)cc1[N+](=O)[O-]` (configuration not stated) the figure was 35.5 µM [rising, single point]; with `Cc1cc(C)c2c(N)c(C(=O)Nc3ccccc3F)sc2n1`, 3.16 µM [falling, partial curve, poor fit]. Take `Cc1ccc(SCc2ccc(C(=O)N3CCCC3)cc2)cc1`: under setting [1], the AC50 is 20 µM [falling, single point]. Same read-out and setting: the same measure for `O=C(CCN1CCN(C(=O)c2ccccc2)CC1)c1ccc(Br)cc1`: 15.8 µM [falling, single point]. The same measure, in the same setting: the same measure for `O=C(c1cc2ccccc2o1)N1CCN(c2ccccc2Cl)CC1`: 20.6 µM [rising, single point]; for `CN1CCN(CCCCOc2ccccc2-c2ccccc2)CC1`: 12.6 µM [falling, partial curve, poor fit]; for `COc1ccc(Nc2nc(-c3sc(C)nc3C)cs2)c(OC)c1`: 31.6 µM [falling, single point]. Turning to `CC1=NN(c2ccc(C(=O)O)cc2)C(=O)CC1`, the AC50 under setting [1] was 2.51 µM [falling, full curve]. On the same count and under the same terms, the same measure for `O=C(Nc1ccccc1)C1=C[C@@H](c2ccc(C(F)(F)F)cc2)C[C@@H](OCc2ccc(CO)cc2)O1`: 3.16 µM [rising, partial curve, poor fit].

With `C=CCC[C@@H](Cc1ccc(F)cc1)C(=O)OCCNC(=O)[C@@H](CC=C)CC(=O)N(CCO)Cc1ccccc1`, the AC50 under setting [1] is 18.4 µM [falling, single point]. Same read-out and setting: the same measure for `COc1cccc2sc(NNC(=O)C3=COCCO3)nc12`: 20 µM [falling, single point]; for `CCC(C(=O)OCC(=O)NC(=O)c1ccccc1)c1ccccc1` (configuration not stated): 3.26 µM [rising, full curve, poor fit]; for `O=C(O)c1cc2c(s1)-c1ccccc1CC2`: 4.11 µM [falling, full curve]. The same measure, in the same setting: with `COCCCNC(=O)CC1C[C@H](C(=O)N2CCOCC2)[C@@]2(CCC3CCCC3)c3[nH]c4ccc(OC)cc4c3CCN2C1=O` (some centres not stated) the figure was 23.1 µM [rising, partial curve]; with `Clc1cccc(Cl)c1/C=N\Nc1nccs1`, 35.5 µM [falling, single point]; with `COc1ccc(Cl)cc1NC(=O)CN(C)C(=O)Cc1ccc2c(c1)CCC2`, 6.31 µM [falling, partial curve, poor fit]. Still for that read-out and setting: with `O=[N+]([O-])c1ccc(O)c(C2=NNC(c3ccccc3F)C2)c1` (configuration not stated) the figure was 12.6 µM [falling, single point]; with `C/C=C1\C(OC2OC(CO)C(O)C(O)C2O)OC=C(C(=O)OC)C1CC(=O)OCC1C(C)C(OC(=O)CC2C(C(=O)OC)=COC(OC3OC(CO)C(O)C(O)C3O)/C2=C\C)CC1C(CO)CO` (configuration not stated), 25.1 µM [rising, single point]. With `CC1CN(C(=O)c2cccc(S(=O)(=O)N3CCOCC3)c2)CC(C)O1` (configuration not stated), the AC50 under setting [1] is 20 µM [rising, partial curve, poor fit]. On the same count and under the same terms, the same measure for `O=C(CN1CCN(S(=O)(=O)c2ccccc2)CC1)Nc1ccccc1Cl`: 3.16 µM [rising, partial curve, poor fit].

In the case of `Cc1nc2ccccc2n1CCC(=O)O`, the AC50 under setting [1] is 2.91 µM [falling, single point]. Same read-out and setting: the same measure for `CCOC(=O)c1c(C)[nH]c(C(=O)Nc2ccc3c(c2)OCO3)c1C`: 0.891 µM [falling, full curve, poor fit]. Still for that read-out and setting: with `O=C1CCCN1CCCNC(=S)Nc1ccc(F)c(Cl)c1` the figure was 28.2 µM [falling, partial curve, poor fit].

`Brc1ccc(NC2=Nc3ccccc3CC2)cc1`: the AC50 under setting [1] was 0.316 µM [rising, full curve, poor fit]. On the same count and under the same terms, with `COc1nnc(-c2ccc(N3CCOCC3)c(NC(C)=O)c2)c2ccccc12` the figure was 32.6 µM [falling, single point]. Still for that read-out and setting: the same measure for `Cc1ccc(CSCC(=O)N/N=C/c2sccc2C)cc1`: 7.31 µM [falling, single point]. On the same count and under the same terms, with `Cc1ccc2cc(CCNC(=O)c3ccc4c(c3)OCO4)c(=O)[nH]c2c1C` the figure was 3.26 µM [rising, full curve]; with `Clc1ccc(OCCCCN2CCc3ccccc3C2)cc1`, 14.1 µM [rising, single point]; with `Cc1ccc(C(=O)Nc2cccnc2)cc1S(=O)(=O)N1CCCCC1`, 35.5 µM [falling, single point]. In the case of `CCc1ccc(N2CC(C(=O)OCC(=O)Nc3ccc(C#N)cc3)CC2=O)cc1` (configuration not stated), the AC50 under setting [1] was 23.1 µM [rising, single point].

As for `CCN(CC)CCCn1c2c(c(SCC(=O)Nc3cccc4ccccc34)nc1=O)CCC2`, under setting [1], the AC50 was 16.4 µM [falling, partial curve].

`CCN(CC)S(=O)(=O)c1ccc(Cl)c(NC(=O)COC(=O)c2c(C)noc2C)c1`: the half-maximal activity concentration (AC50) under setting [1] is 14.6 µM [falling, partial curve]. On the same count and under the same terms, with `CCCNC(=S)NCc1ccc(Cl)cc1` the figure was 25.9 µM [rising, partial curve, poor fit]. As for `COc1cc([N+](=O)[O-])ccc1-c1ccc(/C=N/NC(=O)c2ccccc2O)o1`, under setting [1], the AC50 was 4.47 µM [falling, partial curve, poor fit]. The same measure, in the same setting: the same measure for `Cc1ccc(S(=O)(=O)CCC(=O)OCC(=O)N2CCc3ccccc32)cc1`: 6.31 µM [falling, partial curve, poor fit]; for `CCOC(=O)N/N=C\c1ccc(OC(=O)c2ccco2)cc1`: 35.5 µM [falling, single point]; for `CCn1c(=O)cc(OCC(=O)Nc2nc(C)cs2)c2ccccc21`: 1.64 µM [falling, partial curve, poor fit]. Still for that read-out and setting: the same measure for `CCN(CC)CCCNC(=S)Nc1ccc(Br)cc1`: 3.98 µM [rising, partial curve, poor fit]; for `O=[N+]([O-])c1ccc(OCc2cn([C@@H](CO)c3ccccc3)nn2)c(Br)c1`: 0.794 µM [rising, full curve]. On the same count and under the same terms, with `Cc1ccc(/C=C/C(=O)OCC(=O)Nc2cccnc2Cl)o1` the figure was 29.1 µM [rising, single point]. As for `COc1ccccc1C(=O)NC(C)C(c1cccs1)N1CCOCC1` (configuration not stated), under setting [1], the AC50 is 14.6 µM [rising, partial curve, poor fit]. In the case of `COC(=O)c1c(NC(=O)CSc2nc(-c3ccco3)cc(C(F)(F)F)n2)sc2c1CCCC2`, the half-maximal activity concentration (AC50) under setting [1] is 0.259 µM [rising, full curve, poor fit]. Still for that read-out and setting: the same measure for `Cc1ccc(NC(=O)C(=O)NNC(=O)c2cccs2)cc1`: 10 µM [falling, partial curve]; for `Cc1ccc2cc(C)c(N3CCN(c4ccccn4)CC3)nc2c1`: 0.116 µM [rising, full curve, poor fit]. The same measure, in the same setting: with `O=C(NCc1csc(-c2ccccc2)n1)c1ccco1` the figure was 28.2 µM [falling, single point]; with `Cc1ccc(S(=O)(=O)Nc2ccc(N(C)S(=O)(=O)c3ccc(C)cc3)cc2)cc1`, 22.4 µM [rising, partial curve, poor fit]. Same read-out and setting: with `O=C(O)c1ccc(/C=C/C(=O)c2ccc3c(c2)OCCCO3)cc1` the figure was 10 µM [falling, partial curve].
